The whole screen tested about 2,100 compounds, of which about 590 (28%) were called active. Inconclusive results, whose numbers are uncertain, are shown with a selection of clear calls. The call rests on the fitted dose curve; in most records, active means well fitted inhibition curve with a large enough effect; inconclusive means small, poorly fitted or top-dose-only effect; inactive means flat fitted curve, though single readings scatter. Potencies beside an inconclusive call are fits to weak or partial responses and may not hold up.
Biological target: DNA dC->dU-editing enzyme APOBEC-3F (Homo sapiens) (UniProt Q8IUX4)
Assay: qHTS for inhibitors of Vif-A3F interactions: Cherry picks; further: nearly all actives have a fitted effect of over 70% in size;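 on max response: % of control where 0% means no effect; active compounds raise eYFP fluorescence by blocking Vif-driven A3F loss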
Conditions: HeLa A3F-eYFP + Vif (tagged APOBEC3F with the HIV-1 protein that degrades it), eYFP fluorescence, 24 h
How it was run: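 Read-out: yellow fluorescence (ex 488 nm, em 500-530 nm) by laser-scanning cytometer after 24 h compound exposure, several concentrations, at 37 deg C. Cells: HeLa line stably co-expressing Vif and C-terminally eYFP-tagged A3F; MG132 served as positive control.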
Potency means the concentration at half of the fitted maximal effect.

Protein sequences, listed by entry. Tags and fused reporters are not part of them. Lines headed by an entry give the natural chain unless they say otherwise; changes in a name come on top.
UniProt Q8IUX4: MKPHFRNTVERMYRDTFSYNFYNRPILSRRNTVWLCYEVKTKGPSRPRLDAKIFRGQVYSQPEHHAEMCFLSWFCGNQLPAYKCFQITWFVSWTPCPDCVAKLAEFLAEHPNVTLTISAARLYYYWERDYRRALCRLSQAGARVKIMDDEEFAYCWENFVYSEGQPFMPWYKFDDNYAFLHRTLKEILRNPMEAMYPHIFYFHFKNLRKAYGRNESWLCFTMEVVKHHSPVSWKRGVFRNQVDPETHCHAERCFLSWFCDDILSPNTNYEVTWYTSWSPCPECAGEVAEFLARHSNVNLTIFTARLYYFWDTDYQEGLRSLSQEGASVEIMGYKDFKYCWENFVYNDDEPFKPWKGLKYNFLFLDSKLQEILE

Row | SMILES | Potency | max response
1 | COc1ccc(/C=C/c2ccnc3ccccc23)c(OC)c1 | inconclusive: 25.9 µM [inhibitor, single point] | 
2 | Cc1ccc2nc(/C(C#N)=C/c3ccc(-c4cccc([N+](=O)[O-])c4)o3)[nH]c2c1 |  | inactive: -29.2%
3 | CC(C)(C)C(=O)c1sc2nc(-c3cccs3)cc(C(F)(F)F)c2c1N | active: 1.03 µM | 
4 | O=[N+]([O-])c1cc(Cl)c2cccnc2c1O |  | inactive: 3.56%
5 | COc1cc(C(=O)Nc2ccc3c(c2)nc(C)n3C)cc(OC)c1OC | inconclusive: 15.8 µM [inhibitor, single point] | 
6 | Cc1cc(N2CCN(Cc3cn(C)nc3-c3ccccc3F)CC2)cc(C)n1 | inconclusive: 25 µM [inhibitor, single point] | 
7 | O=C(CCCCn1c(=O)c2ccccc2n(Cc2ccc(F)cc2)c1=O)NCc1ccco1 | inconclusive: 22.3 µM [inhibitor, single point] | 
8 | COc1ccc(CNCC(=O)Nc2ccccc2-n2cccc2)cc1 | inconclusive: 8.86 µM [inhibitor, partial curve] | 
9 | COc1cc(/C=C(\C#N)c2nc3ccccc3[nH]2)cc(Cl)c1OCc1ccccc1Cl | inconclusive: 20.6 µM [inhibitor, partial curve] | 
10 | COc1ccc(C(=O)NC(=S)NCc2cccnc2)cc1Cl |  | inactive: -3.18%
11 | COc1ccc(OC)c(NC(=O)c2cc(-c3cc(C)cc(C)c3O)n[nH]2)c1 | inconclusive: 25.9 µM [inhibitor, single point] | 
12 | Cc1ccc(-c2cn3nc(-c4ccccc4)c(-c4ccccc4)nc3n2)cc1 | active: 18.4 µM | 
13 | O=C(/C=C/c1ccncc1)c1cc(Cl)ccc1O |  | inactive: 3.83%
14 | Cc1cc(Br)ccc1SCC(=O)OC/C(O)=C(\C#N)c1nc2ccccc2[nH]1 | inconclusive: 29.1 µM [inhibitor, single point] | 
15 | Cc1cccc2cc3c(N)c(C(=O)N4CCc5ccccc54)sc3nc12 | active: 6.51 µM | 
16 | O=[N+]([O-])c1ccccc1SNc1ccccc1 | inconclusive: 7.9 µM [inhibitor, partial curve] | 
17 | Cc1noc(C)c1C(=O)OCC(=O)Nc1ccccc1SCC#N |  | inactive: -24.1%
18 | COc1ccc(-n2c(O)c(/C=N/NS(=O)(=O)c3cccc([N+](=O)[O-])c3)c3ccccc3c2=O)cc1OC | active: 17.7 µM | 
19 | Cc1ccc(NC(=O)c2c(C)nc3sc(C(=O)NC4CCCC4)c(N)c3c2-c2ccco2)c(C)c1 | inconclusive: 20.6 µM [inhibitor, single point] | 
20 | Cc1ccc(S(=O)(=O)N2CCCCC2)cc1NC(=O)Cn1ncc(Cl)c(Cl)c1=O |  | inactive: -13.3%
21 | Cc1cc2oc3ccc(NCCCn4ccnc4)cc3c(=O)c2cc1C | inconclusive: 29.1 µM [inhibitor, single point] | 
22 | NC(=O)c1c(NC(=O)c2ccccc2)sc2c1CCN(Cc1ccccc1)C2 | active: 14 µM | 
23 | COc1ccc(OC)c2sc(NC(=O)CCS(=O)(=O)c3ccccc3)nc12 |  | inactive: -17.2%

13 compounds out of the list, ordered by length of the SMILES, smallest number first.
Row | SMILES | Potency | max response
16 | O=[N+]([O-])c1ccccc1SNc1ccccc1 | inconclusive: 7.9 µM [inhibitor, partial curve] | 
13 | O=C(/C=C/c1ccncc1)c1cc(Cl)ccc1O |  | inactive: 3.83%
21 | Cc1cc2oc3ccc(NCCCn4ccnc4)cc3c(=O)c2cc1C | inconclusive: 29.1 µM [inhibitor, single point] | 
5 | COc1cc(C(=O)Nc2ccc3c(c2)nc(C)n3C)cc(OC)c1OC | inconclusive: 15.8 µM [inhibitor, single point] | 
6 | Cc1cc(N2CCN(Cc3cn(C)nc3-c3ccccc3F)CC2)cc(C)n1 | inconclusive: 25 µM [inhibitor, single point] | 
22 | NC(=O)c1c(NC(=O)c2ccccc2)sc2c1CCN(Cc1ccccc1)C2 | active: 14 µM | 
12 | Cc1ccc(-c2cn3nc(-c4ccccc4)c(-c4ccccc4)nc3n2)cc1 | active: 18.4 µM | 
11 | COc1ccc(OC)c(NC(=O)c2cc(-c3cc(C)cc(C)c3O)n[nH]2)c1 | inconclusive: 25.9 µM [inhibitor, single point] | 
14 | Cc1cc(Br)ccc1SCC(=O)OC/C(O)=C(\C#N)c1nc2ccccc2[nH]1 | inconclusive: 29.1 µM [inhibitor, single point] | 
7 | O=C(CCCCn1c(=O)c2ccccc2n(Cc2ccc(F)cc2)c1=O)NCc1ccco1 | inconclusive: 22.3 µM [inhibitor, single point] | 
9 | COc1cc(/C=C(\C#N)c2nc3ccccc3[nH]2)cc(Cl)c1OCc1ccccc1Cl | inconclusive: 20.6 µM [inhibitor, partial curve] | 
2 | Cc1ccc2nc(/C(C#N)=C/c3ccc(-c4cccc([N+](=O)[O-])c4)o3)[nH]c2c1 |  | inactive: -29.2%
18 | COc1ccc(-n2c(O)c(/C=N/NS(=O)(=O)c3cccc([N+](=O)[O-])c3)c3ccccc3c2=O)cc1OC | active: 17.7 µM | 

(list continues)

Row | SMILES | Potency | max response
24 | COc1ccc(CN2C(=O)C(C)Nc3ncnc(N4CCc5ccccc5C4)c32)cc1 (stereo not given) | inconclusive: 1.98 µM [inhibitor, full curve, poor fit] | 
25 | S=C(Nc1ccccc1)N1CCn2c1nc1ccccc12 |  | inactive: -7.52%
26 | CC(/C=N/NC(=O)c1cc(-c2ccccc2)nc2ccccc12)=C\c1ccco1 | inconclusive: 2.8 µM [inhibitor, full curve] | 
27 | Cc1cccc(C)c1OCCNC(=O)C(=O)NCc1ccco1 | inconclusive: 1.58 µM [inhibitor, full curve] | 
28 | Nc1nc(SCc2ccc(Cl)cc2Cl)nc2nc3c(cc12)CCCC3 | inconclusive: 18.4 µM [inhibitor, single point] | 
29 | CCOC(=O)CN1C(=O)S/C(=C/C=C/c2ccc(N(C)C)cc2)C1=O | inconclusive: 6.51 µM [inhibitor, single point] | 
30 | Cc1ccc(-c2nc3ncccc3o2)cc1NC(=O)c1ccc([N+](=O)[O-])o1 |  | inactive: -17.2%
31 | CCCCn1c(NC(=O)c2ccco2)c(S(=O)(=O)c2ccc(C)cc2)c2nc3ccccc3nc21 | inconclusive: 23.1 µM [inhibitor, single point] | 
32 | COC1=C/C(=C/c2c(N)n3nc(-c4ccc(C)cc4)sc3nc2=O)C=CC1=O | inconclusive: 20.6 µM [inhibitor, partial curve] | 
33 | O=S(=O)(Nc1cc(Sc2ncn[nH]2)c(O)c2ccccc12)c1ccccc1 |  | inactive: -29.8%
34 | CCC(=O)NC(c1ccc(OC)cc1)c1c(O)ccc2ccccc12 (stereo not given) | inconclusive: 14 µM [inhibitor, single point] | 
35 | O=[N+]([O-])c1ccccc1C=NNC(=S)NN=Cc1ccccc1[N+](=O)[O-] |  | inactive: -27.9%
36 | Cc1cccc(N2CCN(C(=O)c3cccc(N4CCCC4=O)c3)C(C)C2)c1 (stereo not given) | inconclusive: 3.14 µM [inhibitor, full curve] | 
37 | Cc1cccc(C(=O)Nc2nnc(C3=COCCO3)o2)c1 |  | inactive: 0.472%
38 | CCOC(=O)c1ccc(N=Nc2c(C)c(C#N)c(O)[nH]c2=O)cc1 |  | inactive: -0.299%
39 | CC(=O)c1c(C)oc2c1cc(NS(=O)(=O)c1ccc(Br)cc1)c1ccccc12 | inconclusive: 2.06 µM [inhibitor, full curve] | 
40 | Oc1[nH]c2ccccc2c1N=Nc1ccccc1 | inconclusive: 23.1 µM [inhibitor, single point] | 
41 | COc1ccc(-c2ccc3c(c2)S(=O)(=O)c2cccc(C(=O)NCCOc4ccccc4)c2C3=O)cc1OC | active: 15.8 µM | 
42 | CCC(C)Sc1cccc(-c2nc3cc(C)ccn3c2NC2CCCCC2)c1 (stereo not given) |  | inactive: -1.04%
43 | CCN(Cc1ccccc1)c1ccc(/C=C(\C#N)c2ccccn2)cc1 |  | inactive: -7.46%
44 | O=C(Nc1cc(=O)[nH]c(=O)[nH]1)c1cc(Cl)ccc1Cl | inconclusive: 1.77 µM [inhibitor, full curve] | 
45 | N#C/C(=C/c1ccc(-c2ccc([N+](=O)[O-])cc2)o1)C(=O)Nc1nc(-c2cccs2)cs1 |  | inactive: -8.39%
